Laboratory results from PubChem BioAssay AID1688 (National Center for Advancing Translational Sciences (NCATS), 2009).
Out of some 220,000 compounds screened, about 2,400 (1.1%) were called active. Inconclusive results, whose numbers are uncertain, are shown with a selection of clear calls. Calls come from the whole dose curve; as a rule, active = well fitted inhibition curve with a large enough effect; inconclusive = small, poorly fitted or top-dose-only effect, or effect the other way; inactive = no such curve, though single readings can be large or run the other way. Where the call is inconclusive, the potency comes from a doubtful curve fit.
% is set by controls: 0 for no effect and ±100 for the full control effect; potency is the fitted concentration of half-maximal effect.

Test: qHTS Multiplex Assay to Identify Dual Action Probes in a Cell Model of Huntington: Aggregate Formation (GFP); note: nearly all actives have a fitted effect of over 60% in size
Conditions: PC12 HttQ103-GFP aggregates, Acumen cytometry, 40 h; activity change, negative = inhibition: at 46.1 µM (top of the series) unless noted
Method in brief: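 PC12/HTTQ103-GFP, ecdysone-inducible; teb 100 nM; cpd qHTS titration; GFP aggregates read on laser cytometer, Ex 488/Em 500-530 nm.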
In the case of `O=C(NCCO)c1cccc2c1C(=O)c1ccccc1-2`, the Potency is reported as inconclusive: 2.82 µM [inhibitor, single point]. In the case of `CCCCNC1C(CC)C(CCC)C(C#N)(C#N)C1(C#N)C#N` (stereo not given), the Potency is reported as inconclusive: 12.6 µM [activator, single point]. In the case of `Cc1cc(C)cc(C(=O)NCC(=O)OCC(=O)Nc2cccnc2Cl)c1`, the Potency is reported as inconclusive: 8.91 µM [activator, partial curve]. With `CC1Cc2ccccc2N1C(=O)Cn1cnc2ccccc21` (stereo not given) the Potency was inconclusive: 15.8 µM [inhibitor, single point]. For `Cc1ccc(/C=C/C(=O)NCc2ccco2)o1`, the Potency was inconclusive: 11.2 µM [activator, single point]. In the case of `COc1ccc2[nH]c(C)c(CCN(Cc3cccs3)C(=S)Nc3ccccc3)c2c1`, the Potency is reported as inconclusive: 28.2 µM [inhibitor, single point]. For `O=C(Oc1ccc(C(=S)N2CCOCC2)cc1)c1ccccc1`, the Potency was “inactive”. For `CCN(CC)C(=O)c1ccc2nc(-c3ccccc3)c(-c3ccccc3)nc2c1`, the Potency was “inactive”. In the case of `O=S(=O)(NNc1ccc(Cl)nn1)c1ccc(F)cc1`, the Potency is reported as inconclusive: 15.8 µM [inhibitor, single point]. For `CCN1C(=O)C(CC(=O)Nc2ccc(OC)cc2)N(CCc2ccc(F)cc2)C1=S` (stereo not given), the Potency was inconclusive: 11.2 µM [inhibitor, single point]. In the case of `O=C(NCCN1CCOCC1)c1ccc(N2CCCC2)c([N+](=O)[O-])c1`, the Potency is reported as “inactive”. In the case of `CCOC(=O)CSc1nc(C2CC2)cc(-c2ccc(F)cc2)c1C#N`, the Potency is reported as inconclusive: 3.55 µM [inhibitor, single point]. For `COc1ccc2c(C)nc(Nc3nc(C)c(C)c(=O)[nH]3)nc2c1`, the Potency was inconclusive: 35.5 µM [inhibitor, single point]. With `COc1ccc(/C=N/Nc2ncc(Br)cn2)c(OC)c1` the Potency was inconclusive: 5.62 µM [inhibitor, single point]. For `Cc1ccccc1OCCn1cc(C(=S)N2CCN(C)CC2)c2ccccc21`, the Potency was inconclusive: 22.4 µM [inhibitor, single point]. In the case of `CCOC(=O)c1sc(NS(=O)(=O)c2ccccc2Cl)nc1C`, the Potency is reported as inconclusive: 0.562 µM [inhibitor, full curve, poor fit]. In the case of `COCC(=O)Nc1cc(Cl)ccc1C(F)(F)F`, the Potency is reported as inconclusive: 1.26 µM [inhibitor, single point]. With `CCN(CC)CCC(c1cc(OC)c(OC)c(OC)c1)c1c(OC)cc(OC)c2c(C)cc(=O)oc12` (stereo not given) the Potency was inconclusive: 0.224 µM [activator, full curve, poor fit]. For `CCCn1c(=O)c(C(=O)NCc2cccnc2)c(O)c2ccccc21`, the Potency was inconclusive: 35.5 µM [inhibitor, single point]. With `CCCCN1/C(=C/c2ccc3ccccc3[n+]2CC)Sc2ccccc21` the Potency was active: 2.51 µM. In the case of `COc1ccc(Cn2nnnc2CN2CCC(O)(c3ccccc3F)CC2)cc1`, the activity change, negative = inhibition is reported as inactive: -0.276% [at 9.22 µM]. In the case of `COc1cc(/C=C2\SC(=Nc3c(C)n(C)n(-c4ccccc4)c3=O)NC2=O)ccc1O`, the Potency is reported as inconclusive: 10 µM [activator, single point]. In the case of `CCCCOc1cccc(C2C(C(=O)c3cccs3)=C(O)C(=O)N2Cc2cccnc2)c1` (stereo not given), the Potency is reported as inconclusive: 2.82 µM [activator, full curve, poor fit]. With `CCC(CNc1cc(OC)cc2cccnc12)NC1CCCCC1` (stereo not given) the activity change, negative = inhibition was inactive: -21.2% [at 9.22 µM]. With `CCOc1ccc2[nH]c(O)c(NC(C)=O)c2c1` the Potency was “inactive”. With `CO/N=C/c1ccc(N2CCN(C(=O)c3cccc(Cl)c3)CC2)c([N+](=O)[O-])c1` the Potency was inconclusive: 12.6 µM [inhibitor, single point]. In the case of `COC(=O)c1ccc(COC(=O)C(CCS(C)(=O)=O)N2C(=O)c3ccccc3C2=O)cc1` (stereo not given), the Potency is reported as inconclusive: 5.62 µM [activator, single point]. In the case of `C=CCN(C(=O)c1cccc(N2C(=O)C3CC=CC(C)C3C2=O)c1)c1ccccc1` (stereo not given), the Potency is reported as “inactive”. With `Cc1cc2nc3n(c2cc1C)CC1CC(C(=O)NCC2CC2)N(C)C31` (stereo not given) the activity change, negative = inhibition was inactive: -25.1% [at 9.22 µM]. For `COC(=O)c1sccc1NC(=O)C1C2C=CC(C2)C1C(=O)O` (stereo not given), the Potency was inconclusive: 0.631 µM [inhibitor, single point]. In the case of `CCn1c(SCC(=O)c2ccc(O)c(O)c2)nnc1-c1ccccc1OC`, the Potency is reported as inconclusive: 10 µM [inhibitor, partial curve]. In the case of `CC(C)=CCCC(C)CN1CCC(N2CCC(C(=O)NC(C)C)CC2)CC1` (stereo not given), the Potency is reported as inconclusive: 15.8 µM [inhibitor, single point]. For `CC(=O)Nc1ccc(S(=O)(=O)N2CCN(C(C)CCc3ccccc3)CC2)cc1` (stereo not given), the Potency was “inactive”. For `O=[N+]([O-])c1cc(S(=O)(=O)Nc2ccccc2)ccc1N1CCN(c2ccccc2)CC1`, the Potency was inconclusive: 15.8 µM [inhibitor, single point]. With `Clc1cccc(CON/C=N/c2ncnc3sccc23)c1` the Potency was inconclusive: 14.1 µM [inhibitor, single point]. For `Cc1ccc(Nc2nc(NCc3ccco3)c3ccccc3n2)cc1`, the Potency was active: 11.2 µM. With `OCCC1CN(Cc2nc(-c3ccccc3)cs2)CCN1Cc1ccc(F)cc1` (stereo not given) the Potency was inconclusive: 12.6 µM [inhibitor, single point]. For `C(=N\Nc1ccccc1)/c1ccc(N2CCOCC2)cc1`, the Potency was “inactive”. For `Cc1nsc(Nc2ccccc2)c1C#N`, the Potency was inconclusive: 10 µM [inhibitor, partial curve]. For `O=C(C1COc2ccccc2O1)N1CCCC1` (stereo not given), the activity change, negative = inhibition was inactive: 0.235% [at 9.22 µM]. For `Cc1nn(Cc2ccc(Cl)cc2Cl)c(C)c1NC(=O)NC12CC3CC(CC(C3)C1)C2`, the Potency was active: 25.1 µM. With `CCOC(=O)N1CCN(C(=O)CSc2nc3c(cnn3-c3ccccc3)c(=O)[nH]2)CC1` the Potency was “inactive”. With `O=C(OCC#CCSc1nnc(-c2ccc(Br)cc2)o1)c1ccco1` the Potency was “inactive”. In the case of `CCN1C(=O)CC(N2CCN(c3ccc(C(=O)c4ccccc4)cc3)CC2)C1=O` (stereo not given), the Potency is reported as active: 11.2 µM. In the case of `CCN(CC)c1ccc(-n2cc3c(=O)n(C)c(=O)n(C)c3c2)cc1`, the Potency is reported as inconclusive: 35.5 µM [inhibitor, single point].
